This experiment concerns the target Drosophila melanogaster GTPase Rap1G12V (amino acids 1-180), GMPPNP-loaded (Drosophila melanogaster) (UniProt P08645). The experiment can be described thus: SEC-MALS; 100 µl of individual proteins (200 µM) or RA domain-Rap1G12V-GMPPNP complexes (200 µM complex) on Superdex 200, 0.5 ml/min, buffer C (25 mM HEPES-NaOH pH 7.5, 100 mM NaCl, 5 mM MgCl2, 0.1% β-ME) with 0.2 g/l sodium azide; in duplicate; both purified. In general terms: SEC sorts molecules by how far they enter the pores of the column.

The chains behind the UniProt entries cited, without tags or fusion partners. Where a name states a change or a piece, a line headed by the entry shows the natural chain unless it says otherwise. A line that says so, or that is headed by a name, gives the form on record, which may keep a tag or linker.
Drosophila melanogaster GTPase Rap1G12V (amino acids 1-180), GMPPNP-loaded (P08645, form named): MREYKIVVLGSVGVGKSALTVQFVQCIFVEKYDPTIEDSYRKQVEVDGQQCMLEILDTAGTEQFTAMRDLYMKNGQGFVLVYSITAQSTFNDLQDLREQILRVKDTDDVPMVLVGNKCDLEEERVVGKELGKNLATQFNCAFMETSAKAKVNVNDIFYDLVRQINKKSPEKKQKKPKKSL

These are yes or no findings as the source states them, for the method shown.

For “Drosophila melanogaster GTPase Rap1G12V (amino acids 1-180), GMPPNP-loaded (from UniProt P08645 1-180) (enzyme)”, the binding result was “no binding (tested: 200 µM)”.

The record behind these values is PMC11698047.
